Laboratory results reported in the supplement of paper PMC10849652.
The other results are listed elsewhere or left out.

The chains behind the UniProt entries cited, without tags or fusion partners. Where a name states a change or a piece, a line headed by the entry shows the natural chain unless it says otherwise.
UniProt P49585: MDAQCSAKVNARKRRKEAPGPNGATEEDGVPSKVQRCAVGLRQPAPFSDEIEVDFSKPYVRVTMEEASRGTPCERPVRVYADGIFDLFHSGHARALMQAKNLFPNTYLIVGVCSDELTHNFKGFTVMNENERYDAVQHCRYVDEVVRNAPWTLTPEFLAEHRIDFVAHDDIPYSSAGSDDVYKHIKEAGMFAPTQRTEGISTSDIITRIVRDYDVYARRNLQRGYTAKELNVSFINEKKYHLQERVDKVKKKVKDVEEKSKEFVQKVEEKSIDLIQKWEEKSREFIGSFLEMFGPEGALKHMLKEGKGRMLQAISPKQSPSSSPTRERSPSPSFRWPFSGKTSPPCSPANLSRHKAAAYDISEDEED
UniProt Q8NBP7, whole entry, looked up: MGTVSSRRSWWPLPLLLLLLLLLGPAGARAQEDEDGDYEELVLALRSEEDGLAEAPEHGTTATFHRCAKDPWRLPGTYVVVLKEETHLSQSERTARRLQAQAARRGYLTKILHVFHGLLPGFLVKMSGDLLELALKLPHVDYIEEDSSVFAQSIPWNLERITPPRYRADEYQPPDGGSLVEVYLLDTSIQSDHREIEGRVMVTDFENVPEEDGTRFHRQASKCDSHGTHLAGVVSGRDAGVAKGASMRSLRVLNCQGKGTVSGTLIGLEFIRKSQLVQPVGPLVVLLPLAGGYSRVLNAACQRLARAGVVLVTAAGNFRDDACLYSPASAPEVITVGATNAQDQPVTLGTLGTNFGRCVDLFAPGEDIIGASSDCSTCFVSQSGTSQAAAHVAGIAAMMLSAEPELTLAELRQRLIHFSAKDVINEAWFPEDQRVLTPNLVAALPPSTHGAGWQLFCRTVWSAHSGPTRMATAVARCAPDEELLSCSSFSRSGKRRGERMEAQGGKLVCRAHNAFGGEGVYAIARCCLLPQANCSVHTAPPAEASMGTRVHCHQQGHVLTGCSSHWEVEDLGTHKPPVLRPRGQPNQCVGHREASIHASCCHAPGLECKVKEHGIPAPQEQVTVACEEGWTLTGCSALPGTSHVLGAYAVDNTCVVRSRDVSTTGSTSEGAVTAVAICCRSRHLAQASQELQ
UniProt O15530: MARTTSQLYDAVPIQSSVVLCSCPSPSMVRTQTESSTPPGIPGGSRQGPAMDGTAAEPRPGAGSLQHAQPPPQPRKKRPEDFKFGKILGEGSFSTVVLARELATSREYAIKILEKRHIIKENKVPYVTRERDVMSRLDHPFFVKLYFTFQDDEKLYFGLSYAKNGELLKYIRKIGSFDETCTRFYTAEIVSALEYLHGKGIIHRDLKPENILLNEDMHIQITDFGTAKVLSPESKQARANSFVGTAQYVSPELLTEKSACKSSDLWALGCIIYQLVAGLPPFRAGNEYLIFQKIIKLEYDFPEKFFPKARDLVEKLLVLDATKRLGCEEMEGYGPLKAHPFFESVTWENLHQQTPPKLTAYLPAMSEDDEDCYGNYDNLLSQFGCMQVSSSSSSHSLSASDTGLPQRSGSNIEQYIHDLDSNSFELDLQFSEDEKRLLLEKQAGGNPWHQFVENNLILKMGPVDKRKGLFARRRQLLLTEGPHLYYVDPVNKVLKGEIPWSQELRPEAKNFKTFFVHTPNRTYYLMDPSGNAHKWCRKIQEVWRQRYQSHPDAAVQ
UniProt Q96RG2: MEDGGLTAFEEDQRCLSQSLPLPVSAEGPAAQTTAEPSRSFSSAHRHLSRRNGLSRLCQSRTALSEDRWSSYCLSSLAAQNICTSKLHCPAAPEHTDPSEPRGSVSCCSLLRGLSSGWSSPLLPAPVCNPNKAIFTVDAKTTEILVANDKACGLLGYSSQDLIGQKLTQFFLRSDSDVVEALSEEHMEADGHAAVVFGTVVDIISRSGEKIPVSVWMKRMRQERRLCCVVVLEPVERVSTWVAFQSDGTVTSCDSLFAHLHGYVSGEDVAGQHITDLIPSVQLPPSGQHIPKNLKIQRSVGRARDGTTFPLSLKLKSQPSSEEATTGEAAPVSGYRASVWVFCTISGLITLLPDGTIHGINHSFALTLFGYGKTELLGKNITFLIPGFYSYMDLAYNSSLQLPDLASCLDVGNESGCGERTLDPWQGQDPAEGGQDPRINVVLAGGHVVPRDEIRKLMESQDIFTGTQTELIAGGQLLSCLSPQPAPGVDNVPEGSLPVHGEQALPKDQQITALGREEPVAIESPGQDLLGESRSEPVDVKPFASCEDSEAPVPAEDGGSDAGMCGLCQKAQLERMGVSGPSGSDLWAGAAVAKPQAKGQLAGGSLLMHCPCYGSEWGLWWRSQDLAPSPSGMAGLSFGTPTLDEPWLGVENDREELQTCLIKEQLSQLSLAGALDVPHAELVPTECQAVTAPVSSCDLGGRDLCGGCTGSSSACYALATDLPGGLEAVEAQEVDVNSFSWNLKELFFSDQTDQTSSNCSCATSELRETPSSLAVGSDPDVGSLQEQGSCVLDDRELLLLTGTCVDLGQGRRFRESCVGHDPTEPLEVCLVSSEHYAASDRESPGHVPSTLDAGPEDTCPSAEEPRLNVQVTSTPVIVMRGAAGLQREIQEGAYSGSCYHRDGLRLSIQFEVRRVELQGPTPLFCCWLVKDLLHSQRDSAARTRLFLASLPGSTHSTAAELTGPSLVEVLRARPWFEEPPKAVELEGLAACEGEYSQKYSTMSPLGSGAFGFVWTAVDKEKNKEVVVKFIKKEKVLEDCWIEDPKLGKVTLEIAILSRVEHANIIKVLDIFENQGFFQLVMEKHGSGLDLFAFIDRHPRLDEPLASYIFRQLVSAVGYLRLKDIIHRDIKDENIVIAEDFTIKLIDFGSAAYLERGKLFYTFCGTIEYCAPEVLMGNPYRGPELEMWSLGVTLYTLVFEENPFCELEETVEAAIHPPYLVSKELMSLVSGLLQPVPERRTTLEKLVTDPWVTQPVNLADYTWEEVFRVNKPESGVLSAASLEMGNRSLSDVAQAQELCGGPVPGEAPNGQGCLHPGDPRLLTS
UniProt Q96HS1, whole entry, looked up: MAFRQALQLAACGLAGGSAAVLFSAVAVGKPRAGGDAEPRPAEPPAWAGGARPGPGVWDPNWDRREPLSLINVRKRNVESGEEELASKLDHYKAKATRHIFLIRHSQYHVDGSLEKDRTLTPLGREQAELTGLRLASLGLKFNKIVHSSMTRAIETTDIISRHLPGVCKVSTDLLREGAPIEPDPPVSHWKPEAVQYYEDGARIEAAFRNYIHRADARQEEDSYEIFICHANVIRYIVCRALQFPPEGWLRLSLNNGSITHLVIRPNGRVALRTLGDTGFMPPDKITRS
UniProt O15067: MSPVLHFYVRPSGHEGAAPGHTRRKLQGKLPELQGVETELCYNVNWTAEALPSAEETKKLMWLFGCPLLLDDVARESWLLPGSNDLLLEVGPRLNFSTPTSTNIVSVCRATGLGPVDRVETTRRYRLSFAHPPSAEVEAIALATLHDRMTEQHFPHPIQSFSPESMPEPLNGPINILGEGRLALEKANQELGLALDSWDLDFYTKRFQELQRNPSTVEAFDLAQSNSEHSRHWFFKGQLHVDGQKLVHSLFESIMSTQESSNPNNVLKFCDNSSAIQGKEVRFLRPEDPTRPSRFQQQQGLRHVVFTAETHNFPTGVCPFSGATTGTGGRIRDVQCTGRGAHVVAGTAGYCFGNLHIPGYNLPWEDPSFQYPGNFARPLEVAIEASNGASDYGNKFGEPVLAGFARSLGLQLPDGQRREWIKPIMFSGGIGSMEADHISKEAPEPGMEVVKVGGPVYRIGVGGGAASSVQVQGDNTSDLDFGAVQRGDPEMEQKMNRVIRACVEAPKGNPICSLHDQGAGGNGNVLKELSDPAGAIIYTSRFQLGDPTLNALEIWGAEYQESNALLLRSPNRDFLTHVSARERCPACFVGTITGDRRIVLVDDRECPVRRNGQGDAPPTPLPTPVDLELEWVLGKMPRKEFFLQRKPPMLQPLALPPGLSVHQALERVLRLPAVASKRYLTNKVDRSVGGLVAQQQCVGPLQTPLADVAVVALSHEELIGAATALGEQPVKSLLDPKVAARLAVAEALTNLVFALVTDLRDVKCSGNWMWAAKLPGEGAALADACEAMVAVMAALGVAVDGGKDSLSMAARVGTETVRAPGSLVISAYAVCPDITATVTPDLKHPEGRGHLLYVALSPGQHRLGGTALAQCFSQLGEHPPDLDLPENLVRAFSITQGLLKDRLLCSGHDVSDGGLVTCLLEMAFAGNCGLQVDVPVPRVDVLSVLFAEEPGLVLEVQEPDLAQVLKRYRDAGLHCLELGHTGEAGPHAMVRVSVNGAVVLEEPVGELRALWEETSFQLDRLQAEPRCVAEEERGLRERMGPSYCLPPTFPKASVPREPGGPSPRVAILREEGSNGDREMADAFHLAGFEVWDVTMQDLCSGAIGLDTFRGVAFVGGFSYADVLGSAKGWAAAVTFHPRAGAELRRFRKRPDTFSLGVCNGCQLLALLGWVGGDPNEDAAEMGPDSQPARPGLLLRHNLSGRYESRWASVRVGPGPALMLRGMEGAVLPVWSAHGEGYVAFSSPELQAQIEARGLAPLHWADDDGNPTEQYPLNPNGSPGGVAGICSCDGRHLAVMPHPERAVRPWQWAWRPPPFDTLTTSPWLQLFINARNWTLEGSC
UniProt O00330, whole entry, looked up: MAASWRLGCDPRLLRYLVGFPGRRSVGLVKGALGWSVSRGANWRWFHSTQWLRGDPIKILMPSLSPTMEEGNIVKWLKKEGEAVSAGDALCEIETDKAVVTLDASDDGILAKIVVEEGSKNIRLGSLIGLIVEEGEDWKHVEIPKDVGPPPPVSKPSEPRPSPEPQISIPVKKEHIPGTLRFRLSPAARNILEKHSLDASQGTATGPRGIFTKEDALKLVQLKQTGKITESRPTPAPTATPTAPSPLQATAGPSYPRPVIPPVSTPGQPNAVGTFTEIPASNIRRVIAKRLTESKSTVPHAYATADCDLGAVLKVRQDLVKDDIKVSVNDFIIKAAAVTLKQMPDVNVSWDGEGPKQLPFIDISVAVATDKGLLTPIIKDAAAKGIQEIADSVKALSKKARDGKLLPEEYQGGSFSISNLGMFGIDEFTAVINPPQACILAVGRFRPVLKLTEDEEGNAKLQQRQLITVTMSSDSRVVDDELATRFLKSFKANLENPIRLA
UniProt P12004, whole entry, looked up: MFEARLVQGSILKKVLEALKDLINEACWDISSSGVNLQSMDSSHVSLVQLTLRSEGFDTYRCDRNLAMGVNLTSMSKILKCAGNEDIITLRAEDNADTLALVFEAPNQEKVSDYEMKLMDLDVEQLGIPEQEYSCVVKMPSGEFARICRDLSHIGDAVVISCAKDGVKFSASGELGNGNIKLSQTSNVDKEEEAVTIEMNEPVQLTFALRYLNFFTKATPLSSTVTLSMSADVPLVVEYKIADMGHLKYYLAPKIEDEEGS
UniProt Q32M88: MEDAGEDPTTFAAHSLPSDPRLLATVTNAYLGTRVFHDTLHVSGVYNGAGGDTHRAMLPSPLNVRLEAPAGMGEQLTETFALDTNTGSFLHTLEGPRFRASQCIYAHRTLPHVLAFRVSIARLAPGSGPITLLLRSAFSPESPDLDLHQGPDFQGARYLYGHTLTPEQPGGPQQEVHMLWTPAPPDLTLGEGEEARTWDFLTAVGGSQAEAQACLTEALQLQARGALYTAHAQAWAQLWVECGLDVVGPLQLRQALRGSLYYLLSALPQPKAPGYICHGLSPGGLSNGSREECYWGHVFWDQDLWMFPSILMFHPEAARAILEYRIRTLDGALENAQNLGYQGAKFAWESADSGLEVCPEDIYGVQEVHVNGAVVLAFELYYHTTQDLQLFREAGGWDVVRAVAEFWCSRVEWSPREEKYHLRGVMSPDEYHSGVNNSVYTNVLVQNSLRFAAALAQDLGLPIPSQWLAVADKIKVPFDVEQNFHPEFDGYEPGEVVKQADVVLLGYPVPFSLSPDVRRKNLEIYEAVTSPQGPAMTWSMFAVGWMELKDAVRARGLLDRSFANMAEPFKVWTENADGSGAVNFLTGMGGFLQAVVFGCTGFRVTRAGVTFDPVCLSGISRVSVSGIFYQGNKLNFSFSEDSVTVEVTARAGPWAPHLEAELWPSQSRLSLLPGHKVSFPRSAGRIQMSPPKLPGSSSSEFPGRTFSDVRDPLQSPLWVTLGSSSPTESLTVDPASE
UniProt Q8NBM8: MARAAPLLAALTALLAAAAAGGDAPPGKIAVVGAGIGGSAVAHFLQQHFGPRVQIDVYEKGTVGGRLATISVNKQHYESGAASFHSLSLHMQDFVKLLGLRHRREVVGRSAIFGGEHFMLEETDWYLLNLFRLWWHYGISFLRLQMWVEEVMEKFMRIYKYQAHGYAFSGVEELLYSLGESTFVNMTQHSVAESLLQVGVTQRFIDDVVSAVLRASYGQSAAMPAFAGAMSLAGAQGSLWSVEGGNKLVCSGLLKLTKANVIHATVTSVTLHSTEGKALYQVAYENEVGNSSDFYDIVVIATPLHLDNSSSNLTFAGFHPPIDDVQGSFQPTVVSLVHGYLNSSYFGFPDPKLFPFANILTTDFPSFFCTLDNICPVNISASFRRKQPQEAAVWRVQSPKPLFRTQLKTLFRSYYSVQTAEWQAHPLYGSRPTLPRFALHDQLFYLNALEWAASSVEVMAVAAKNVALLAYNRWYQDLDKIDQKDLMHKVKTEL

Columns and labels:
Experiment in all cases: log2 fold change, soluble protein after heating vs DMSO (PISA); higher = thermal stabilisation; K562 lysate, 10 uM; active = over 0.2 and 3.5 SD of the protein, either way, in both replicates (recomputed)
alvocidib = compound: CN1CC[C@H](c2c(O)cc(O)c3c(=O)cc(-c4ccccc4Cl)oc23)[C@H](O)C1 [alvocidib]
How it was run: (§1)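 To prepare the extract, K562 pellets were dounce-homogenised in PBS pH 7.4 with 1 mM MgCl2, giving crude material at 1 mg/mL protein. This was treated with 10 μM compound for 30 min, then heated in aliquots for 3 min over 48°C-58°C before pooling and addition of NP-40 to 0.5% at 4°C. Centrifugation at 21,000xg for 90 min left soluble protein in the supernatant, which TMTpro 16plex LC-MS/MS quantified with equalised channel sums. Results are log-two fold changes in thermal stability compared with solvent controls, from duplicates.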

Tubastatin A = compound: CN1CCc2c(c3ccccc3n2Cc2ccc(C(=O)NO)cc2)C1 [Tubastatin A]
How it was run: as §1

[1] = compound: CNC(=O)C1=CC=CC=C1NC2=NC(=NC=C2Cl)NC3=C(C=C(C=C3)N4CCOCC4)OC
How it was run: as §1

defactinib = compound: CNC(=O)c1ccc(Nc2ncc(C(F)(F)F)c(NCc3nccnc3N(C)S(C)(=O)=O)n2)cc1 [defactinib]
How it was run: as §1

[2] = compound: CNc1nc(-c2ccc3c(N)n[nH]c3c2)cc(N2C[C@@H](C(=O)NC3CCCCC3)CC[C@H]2C)n1
How it was run: as §1

encorafenib = compound: COC(=O)N[C@@H](C)CNc1nccc(-c2cn(C(C)C)nc2-c2cc(Cl)cc(NS(C)(=O)=O)c2F)n1 [encorafenib]
How it was run: as §1

[3] = compound: COC(=O)[C@H](CCSC)NC(=O)C1=C(C=C(C=C1)NC[C@H](CS)N)C2=CC=CC=C2
How it was run: as §1

alisertib = compound: COc1cc(Nc2ncc3c(n2)-c2ccc(Cl)cc2C(c2c(F)cccc2OC)=NC3)ccc1C(=O)O [alisertib]
How it was run: as §1

[4] = compound: COc1cc2nc(-c3cc(F)ccc3O)nc(N[C@@H]3CNC[C@H]3C(C)(C)O)c2cc1OC
How it was run: as §1

gefitinib = compound: COc1cc2ncnc(Nc3ccc(F)c(Cl)c3)c2cc1OCCCN1CCOCC1 [gefitinib]
How it was run: as §1

lapatinib = compound: CS(=O)(=O)CCNCc1ccc(-c2ccc3ncnc(Nc4ccc(OCc5cccc(F)c5)c(Cl)c4)c3c2)o1 [lapatinib]
How it was run: as §1

pictilisib = compound: CS(=O)(=O)N1CCN(Cc2cc3nc(-c4cccc5[nH]ncc45)nc(N4CCOCC4)c3s2)CC1 [pictilisib]
How it was run: as §1

crizotinib = compound: C[C@@H](Oc1cc(-c2cnn(C3CCNCC3)c2)cnc1N)c1c(Cl)ccc(F)c1Cl [crizotinib]
How it was run: as §1

[5] = compound: C[C@H](C1=CC=C(C=C1)C(=O)NC2=C3C=CNC3=NC=C2)N
How it was run: as §1

duvelisib = compound: C[C@H](Nc1ncnc2nc[nH]c12)c1cc2cccc(Cl)c2c(=O)n1-c1ccccc1 [duvelisib]
How it was run: as §1

gandotinib = compound: Cc1cc(Nc2cc(CN3CCOCC3)c3nc(C)c(Cc4ccc(Cl)cc4F)n3n2)n[nH]1 [gandotinib]
How it was run: as §1

tozasertib = compound: Cc1cc(Nc2cc(N3CCN(C)CC3)nc(Sc3ccc(NC(=O)C4CC4)cc3)n2)n[nH]1 [tozasertib]
How it was run: as §1

doramapimod = compound: Cc1ccc(-n2nc(C(C)(C)C)cc2NC(=O)Nc2ccc(OCCN3CCOCC3)c3ccccc23)cc1 [doramapimod]
How it was run: as §1

bafetinib = compound: Cc1ccc(NC(=O)c2ccc(CN3CC[C@H](N(C)C)C3)c(C(F)(F)F)c2)cc1Nc1nccc(-c2cncnc2)n1 [bafetinib]
How it was run: as §1

[6] = compound: Cc1cccc(CC(=O)N2CCc3c2ccc(-c2cn(C)c4ncnc(N)c24)c3F)n1
How it was run: as §1

Measured: log2 fold change

PDCD6 (UniProt O75340)
inactive: alvocidib 0.038 | Tubastatin A 0.048 | [1] 0.01 | defactinib 0.053 | [2] 0.047 | encorafenib -0.013 | [3] 0.003 | alisertib 0.024 | [4] -0.002 | gefitinib -0.02 | lapatinib 0.011 | pictilisib 0.025 | crizotinib -0.012 | [5] -0.015 | duvelisib 0.005 | gandotinib 0.016 | tozasertib 0.004 | doramapimod 0.016 | bafetinib -0.044 | [6] 0.029

PCYT1A (UniProt P49585)
inactive: alvocidib 0.025 | Tubastatin A 0.02 | [1] 0.021 | defactinib -0.007 | [2] 0.044 | encorafenib 0.015 | [3] -0.058 | alisertib 0.02 | [4] 0.022 | gefitinib -0.01 | lapatinib -0.007 | pictilisib -0.029 | crizotinib 0.001 | [5] 0.03 | duvelisib -0.01 | gandotinib -0.04 | tozasertib 0.015 | doramapimod 0.064 | bafetinib 0.029 | [6] -0.018

PCSK9 (UniProt Q8NBP7)
inactive: alvocidib -0.074 | Tubastatin A -0.01 | [1] 0.016 | defactinib 0.049 | [2] 0.065 | encorafenib 0.037 | [3] 0.006 | alisertib 0.008 | [4] 0.026 | gefitinib 0.028 | lapatinib 0.023 | pictilisib 0.008 | crizotinib -0.048 | [5] 0.016 | duvelisib 0.005 | gandotinib 0.001 | tozasertib -0.018 | doramapimod 0.017 | bafetinib -0.038 | [6] 0.11

PDE4DIP isoform 4 (UniProt Q5VU43)
inactive: alvocidib -0.038 | Tubastatin A 0.004 | [1] -0.003 | defactinib -0.018 | [2] 0.036 | encorafenib 0.006 | [3] 0.004 | alisertib 0.023 | [4] -0.007 | gefitinib -0.059 | lapatinib -0.003 | pictilisib -0.076 | crizotinib -0.048 | [5] -0.069 | duvelisib -0.017 | gandotinib 0.116 | tozasertib -0.005 | doramapimod 0 | bafetinib -0.073 | [6] 0.05

PC (UniProt P11498)
inactive: alvocidib 0.007 | Tubastatin A -0.046 | [1] 0.064 | defactinib 0.016 | [2] 0.044 | encorafenib 0.011 | [3] 0.062 | alisertib -0.033 | [4] 0.021 | gefitinib 0.022 | lapatinib -0.025 | pictilisib -0.047 | crizotinib -0.036 | [5] 0.037 | duvelisib -0.006 | gandotinib -0.109 | tozasertib 0.005 | doramapimod -0.01 | bafetinib 0.007 | [6] 0.014

PDPK1 (UniProt O15530)
inactive: alvocidib 0.009 | Tubastatin A -0.121 | [1] 0.107 | defactinib 0.21 | encorafenib -0.019 | [3] 0.109 | alisertib 0.153 | [4] 0.15 | gefitinib 0.016 | lapatinib -0.04 | pictilisib -0.051 | crizotinib 0.03 | [5] 0.262 | duvelisib -0.039 | gandotinib 0.092 | tozasertib -0.029 | doramapimod -0.012 | bafetinib -0.021 | [6] -0.211
active: [2] 0.501

PASK (UniProt Q96RG2)
inactive: alvocidib 0.02 | Tubastatin A -0.034 | [1] 0.083 | defactinib 0.044 | [2] 0.039 | encorafenib 0.04 | [3] 0 | alisertib -0.083 | [4] -0.03 | gefitinib -0.007 | lapatinib 0.003 | pictilisib -0.011 | crizotinib -0.092 | [5] 0.093 | duvelisib -0.014 | gandotinib -0.063 | tozasertib -0.031 | doramapimod 0.027 | bafetinib -0.035 | [6] -0.038

PGAM5 (UniProt Q96HS1)
inactive: alvocidib 0.004 | Tubastatin A 0.022 | [1] 0.001 | defactinib 0.017 | [2] -0.019 | encorafenib 0.058 | [3] -0.103 | alisertib -0.019 | [4] -0.006 | gefitinib 0.019 | lapatinib -0.023 | pictilisib -0.003 | crizotinib -0.016 | [5] -0.039 | duvelisib -0.006 | gandotinib 0.002 | tozasertib -0.007 | doramapimod 0.002 | bafetinib -0.02 | [6] 0.027

PARVB (UniProt Q9HBI1)
inactive: alvocidib 0.039 | Tubastatin A -0.04 | [1] -0.015 | defactinib 0.016 | [2] -0.002 | encorafenib 0.019 | [3] 0.046 | alisertib 0.022 | [4] 0.011 | gefitinib 0.083 | lapatinib -0.034 | pictilisib -0.03 | crizotinib -0.031 | [5] -0.026 | duvelisib -0.03 | gandotinib -0.055 | tozasertib 0.026 | doramapimod -0.025 | bafetinib -0.043 | [6] -0.011

PFAS (UniProt O15067)
inactive: alvocidib -0.015 | Tubastatin A -0.01 | [1] 0.009 | defactinib 0.022 | [2] 0 | encorafenib -0.004 | [3] 0.119 | alisertib 0.009 | [4] -0.011 | gefitinib -0.009 | lapatinib -0.01 | pictilisib -0.011 | crizotinib -0.067 | [5] -0.011 | duvelisib -0.009 | gandotinib 0.002 | tozasertib -0.008 | doramapimod 0.035 | bafetinib -0.028 | [6] 0.019

PDHX (UniProt O00330)
inactive: alvocidib 0.033 | Tubastatin A 0.031 | [1] -0.007 | defactinib -0.02 | [2] 0.005 | encorafenib 0.011 | [3] -0.034 | alisertib 0.012 | [4] -0.012 | gefitinib -0.001 | lapatinib -0.034 | pictilisib -0.026 | crizotinib 0.024 | [5] 0 | duvelisib 0 | gandotinib -0.047 | tozasertib -0.01 | doramapimod -0.012 | bafetinib -0.001 | [6] -0.046

PCNA (UniProt P12004)
inactive: alvocidib -0.022 | Tubastatin A 0.001 | [1] -0.019 | defactinib -0.01 | [2] -0.023 | encorafenib -0.016 | [3] -0.009 | alisertib 0.012 | [4] -0.002 | gefitinib -0.006 | lapatinib -0.003 | pictilisib -0.005 | crizotinib 0.023 | [5] -0.063 | duvelisib 0.003 | gandotinib 0.026 | tozasertib 0.027 | doramapimod -0.003 | bafetinib 0.03 | [6] 0.084

PGGHG (UniProt Q32M88)
inactive: alvocidib -0.011 | Tubastatin A 0.033 | [1] 0.038 | defactinib -0.017 | [2] 0.017 | encorafenib 0.017 | [3] -0.061 | alisertib -0.023 | [4] -0.051 | gefitinib -0.009 | lapatinib 0.006 | pictilisib -0.057 | crizotinib -0.015 | [5] -0.058 | duvelisib 0.019 | gandotinib 0.023 | tozasertib -0.013 | doramapimod 0.025 | bafetinib 0.011 | [6] -0.031

PDLIM1 (UniProt O00151)
inactive: alvocidib -0.009 | Tubastatin A 0.063 | [1] 0.022 | defactinib -0.021 | [2] 0.036 | encorafenib -0.002 | [3] -0.028 | alisertib 0 | [4] -0.017 | gefitinib -0.06 | lapatinib 0.028 | pictilisib 0.008 | crizotinib 0.022 | [5] 0.038 | duvelisib 0.008 | gandotinib 0.013 | tozasertib -0.016 | doramapimod -0.03 | bafetinib 0.039 | [6] -0.076

PCYOX1L (UniProt Q8NBM8)
inactive: alvocidib 0.002 | Tubastatin A 0.041 | [1] 0.012 | defactinib -0.009 | [2] 0.014 | encorafenib 0.087 | [3] -0.03 | alisertib 0.004 | [4] 0.04 | gefitinib -0.016 | lapatinib -0.052 | pictilisib 0.013 | crizotinib 0.047 | [5] 0.002 | duvelisib -0.043 | gandotinib 0.027 | tozasertib -0.019 | doramapimod 0.003 | bafetinib -0.052 | [6] 0.008

PFKL isoform 2 (UniProt P17858)
inactive: alvocidib -0.025 | Tubastatin A 0.025 | [1] 0.069 | defactinib -0.033 | [2] 0.036 | encorafenib -0.025 | [3] -0.064 | alisertib -0.021 | [4] 0.01 | gefitinib 0.009 | lapatinib -0.012 | pictilisib -0.015 | crizotinib -0.062 | [5] -0.029 | duvelisib -0.1 | gandotinib 0.022 | tozasertib 0.011 | doramapimod -0.006 | bafetinib -0.032 | [6] 0.018
